# Test results: the M2OR odorant receptor database
# The list shows a part of the results. The calls were merged from several studies; some rest on single wells.
# Tested on: T1, OR2T1
# T1 sequence (whole entry): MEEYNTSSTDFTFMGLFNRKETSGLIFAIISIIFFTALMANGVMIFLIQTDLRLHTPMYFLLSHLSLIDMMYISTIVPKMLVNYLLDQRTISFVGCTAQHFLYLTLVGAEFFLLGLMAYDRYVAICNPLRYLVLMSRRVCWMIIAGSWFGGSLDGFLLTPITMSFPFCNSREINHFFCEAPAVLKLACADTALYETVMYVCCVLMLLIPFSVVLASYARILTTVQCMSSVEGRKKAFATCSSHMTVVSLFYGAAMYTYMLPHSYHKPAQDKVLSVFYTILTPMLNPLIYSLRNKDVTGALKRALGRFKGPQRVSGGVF
# Details: stereoisomer not certain
# Method in brief: (§1)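 Values were gathered from published papers (main text and supplementary material), with extra details requested from the original authors when needed, and checked for typos and inconsistencies. Each receptor–molecule pair is called responsive (active) if the original authors judged the measured signal statistically different from baseline, and non-responsive (inactive) otherwise. Assay methods varied by source, often transient mammalian cell-line luciferase assays. Recorded details include cell line, G-protein, co-transfected protein and tags.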
row,SMILES,odorant receptor agonist call
1,CC12C=CCC1C1CCC3=CC(=O)CCC3(C)C1CC2 (centres undefined),inactive
2,CCCCCC(=O)O,inactive
3,CCCC(=O)O,active
4,CC(C)CCC(=O)O,inactive
5,C=CCc1ccc(OC)c(OC)c1,inactive
6,CC=Cc1ccc(O)c(OC)c1,active
7,O=C1CCCCCCCCCCCCCCO1,inactive
8,CC(C)C(=O)O,inactive
9,C=CC(C)(O)CCC=C(C)C (centres undefined),inactive
10,COc1cc(C)ccc1O,inactive
11,CCCCCCCC=O,inactive
12,COc1cc(C=O)ccc1O,inactive
13,CC(=O)OCC=C(C)CCC=C(C)C,inactive
14,COc1ccccc1O,inactive
15,c1ccc(Oc2ccccc2)cc1,inactive
16,CCCCO,inactive
17,CC(=O)OC1CC2CCC1(C)C2(C)C (centres undefined),inactive
18,CC1CCC(C(C)C)C(O)C1 (centres undefined),inactive
19,CC12C=CCC1C1CCC3CC(=O)CCC3(C)C1CC2 (centres undefined),inactive
20,C=CCc1ccc(OC(C)=O)c(OC)c1,inactive
21,O=C1CCCCCCCCCCCC(=O)OCCO1,inactive
22,CCCCCCCCCCC=O,inactive
23,CC(=O)OC(C)(C)C1CC=C(C)CC1 (centres undefined),inactive
24,CC12CCC(CC1)C(C)(C)O2,inactive
25,CC1COCc2cc3c(cc21)C(C)(C)C(C)C3(C)C (centres undefined),active
26,CCCCCOC(C)=O,inactive
27,CC(C)CC(=O)O,inactive

# Tested on: T2, OR2T2
# T2 sequence (whole entry): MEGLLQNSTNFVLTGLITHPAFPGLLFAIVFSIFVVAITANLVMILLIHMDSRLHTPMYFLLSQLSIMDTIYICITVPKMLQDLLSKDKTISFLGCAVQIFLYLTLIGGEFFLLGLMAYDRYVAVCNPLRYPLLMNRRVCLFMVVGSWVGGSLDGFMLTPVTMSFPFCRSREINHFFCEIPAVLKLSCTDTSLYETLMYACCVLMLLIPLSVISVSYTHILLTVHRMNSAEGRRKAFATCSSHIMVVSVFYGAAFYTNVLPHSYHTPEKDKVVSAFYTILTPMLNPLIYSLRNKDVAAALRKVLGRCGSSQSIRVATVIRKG
# Details: stereoisomer not certain
# Method in brief: as §1
row,SMILES,odorant receptor agonist call
1,CC12C=CCC1C1CCC3=CC(=O)CCC3(C)C1CC2 (centres undefined),inactive
2,CCCCCC(=O)O,inactive
3,CCCC(=O)O,inactive
4,CC(C)CCC(=O)O,inactive
5,C=CCc1ccc(OC)c(OC)c1,inactive
6,CC=Cc1ccc(O)c(OC)c1,active
7,O=C1CCCCCCCCCCCCCCO1,inactive
8,CC(C)C(=O)O,inactive
9,C=CC(C)(O)CCC=C(C)C (centres undefined),inactive
10,COc1cc(C)ccc1O,inactive
11,CCCCCCCC=O,inactive
12,COc1cc(C=O)ccc1O,inactive
13,CC(=O)OCC=C(C)CCC=C(C)C,inactive
14,COc1ccccc1O,inactive
15,c1ccc(Oc2ccccc2)cc1,inactive
16,CCCCO,inactive
17,CC(=O)OC1CC2CCC1(C)C2(C)C (centres undefined),inactive
18,CC1CCC(C(C)C)C(O)C1 (centres undefined),inactive
19,CC12C=CCC1C1CCC3CC(=O)CCC3(C)C1CC2 (centres undefined),inactive
20,C=CCc1ccc(OC(C)=O)c(OC)c1,active
21,O=C1CCCCCCCCCCCC(=O)OCCO1,inactive
22,CCCCCCCCCCC=O,inactive
23,CC(=O)OC(C)(C)C1CC=C(C)CC1 (centres undefined),inactive
24,CC12CCC(CC1)C(C)(C)O2,inactive
25,CC1COCc2cc3c(cc21)C(C)(C)C(C)C3(C)C (centres undefined),inactive
26,CCCCCOC(C)=O,inactive
27,CC(C)CC(=O)O,inactive
